Assay [1] deals with rat NCAM F3 modules 1-2 (rat) (UniProt P13596). The experiment in a line: sensorgram (Response diff., RU against time), soluble peptide … at 2-500 µg/ml on immobilized NCAM F3(1-2).
For assay [2] the target is unchanged. The experiment in a line: sensorgram (Response diff., RU against time), soluble peptide AKTVKFK at 2-500 µg/ml on immobilized NCAM F3(1-2).

Amino acid sequences for entries named in this document (tags omitted). A change or cut given only in a name is not applied to a line headed by its entry.
UniProt P13596: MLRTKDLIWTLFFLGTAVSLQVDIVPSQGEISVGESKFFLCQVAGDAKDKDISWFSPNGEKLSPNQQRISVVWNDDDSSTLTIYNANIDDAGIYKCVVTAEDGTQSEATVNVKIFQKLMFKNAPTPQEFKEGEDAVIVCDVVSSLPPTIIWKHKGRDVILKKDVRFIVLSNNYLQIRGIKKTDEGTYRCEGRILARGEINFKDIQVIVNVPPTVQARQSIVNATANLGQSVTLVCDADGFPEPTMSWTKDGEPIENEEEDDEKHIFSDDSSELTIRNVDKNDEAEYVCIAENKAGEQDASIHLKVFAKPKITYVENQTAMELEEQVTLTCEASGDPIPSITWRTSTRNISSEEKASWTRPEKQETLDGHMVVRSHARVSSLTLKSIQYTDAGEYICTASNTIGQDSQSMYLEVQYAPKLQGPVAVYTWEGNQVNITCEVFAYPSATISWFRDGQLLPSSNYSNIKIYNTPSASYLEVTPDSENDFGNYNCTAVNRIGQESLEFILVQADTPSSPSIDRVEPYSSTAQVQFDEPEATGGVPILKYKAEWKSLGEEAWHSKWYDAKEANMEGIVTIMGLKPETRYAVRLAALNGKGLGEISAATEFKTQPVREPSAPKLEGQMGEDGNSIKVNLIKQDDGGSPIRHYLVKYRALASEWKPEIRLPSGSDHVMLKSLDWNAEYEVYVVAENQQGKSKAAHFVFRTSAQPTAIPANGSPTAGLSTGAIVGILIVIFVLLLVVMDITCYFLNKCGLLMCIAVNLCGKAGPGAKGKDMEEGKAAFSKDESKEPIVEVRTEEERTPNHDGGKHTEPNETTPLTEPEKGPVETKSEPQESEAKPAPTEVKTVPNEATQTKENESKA

Results are given in words; binding and its absence hold for the method and conditions named. Binding calls can cover weak binding; strength is not graded here.

Consider RWLKNGKEFK [FGFR1-Ig2 derived peptide … (amino acids 189-198)], for which the binding entry in assay [1] was “binds”. For AKTVKFK [FGFR1-Ig2 derived peptide AKTVKFK (amino acids 171-177)], the binding result in assay [2] was “binds”.

Source of the values: US20120141451A1.
